# Laboratory results from patent US20250042995A1 (AKESO BIOPHARMA, published 2025).
# These are yes or no findings as the source states them, for the method shown. Some entries that bind do so weakly or less than the wild type.
# T1: human LAG3-mFc (human, UniProt P18627 23-450)
# T1 construct: also called antigen human LAG3-mFc; not shown: mFc: Fc protein fragment of mouse IgG
# T1 sequence (looked up): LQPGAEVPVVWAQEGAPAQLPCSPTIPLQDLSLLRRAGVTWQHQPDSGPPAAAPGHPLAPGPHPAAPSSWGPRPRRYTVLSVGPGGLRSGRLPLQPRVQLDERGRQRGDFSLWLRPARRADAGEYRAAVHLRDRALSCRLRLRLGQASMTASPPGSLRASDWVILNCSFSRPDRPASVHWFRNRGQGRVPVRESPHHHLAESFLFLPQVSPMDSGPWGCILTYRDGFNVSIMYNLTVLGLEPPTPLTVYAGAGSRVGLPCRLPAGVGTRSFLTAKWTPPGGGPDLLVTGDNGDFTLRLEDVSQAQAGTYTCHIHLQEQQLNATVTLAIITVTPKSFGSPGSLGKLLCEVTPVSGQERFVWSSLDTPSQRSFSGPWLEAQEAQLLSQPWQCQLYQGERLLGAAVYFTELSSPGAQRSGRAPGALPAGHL
# B1: H7L9(hG4WT) (antibody, human IgG4 S228P, kappa, V domains shown)
# VH: QVQLQQWGAGLLKPSETLSLTCAVYGGSISDYYWNWIRQPPGKGLEWIGEINHRGTTNSNPSLKSRVTLSLDTSKNQFSLKLRSVTAADTAVYYCAFGYSDYEYDWFDPWGQGTLVTVSS
# VL: EIVLTQSPATLSLSPGERATLSCRASQTISSYLAWYQQKPGQAPRLLIYDGSNRATGIPARFSGSGSGTDFTLTISSLEPEDFAVYYCQQRSNWPLTFGQGTNLEIKR
# notes: Humanized anti-LAG3 IgG4 (Ig gamma-4 chain C region) with human kappa constant region
# Biological target: T1, human LAG3-mFc
# Assay: ELISA
binder,measurement,value
B1,binding,binds
